Patent US20220017615A1
Substitutions are numbered along the chain they refer to. No constants are given. Whether binding was seen depends on the method and setting. Binding can be weak; no strength is given. One block for each binder: values may come before it.

Assays:
[1] = biological target: cynomolgus CD47, on CHOK1-cCD47 stable cell line (cynomolgus); test: FACS on cynomolgus CD47-expressing cells
[2] = biological target: cynomolgus CD47, on CHOK1-cCD47 stable cell line (cynomolgus); test: flow cytometry (FACS) on CHOK1-cynoCD47 cells, mean fluorescence intensity
[3] = biological target: cynomolgus CD47, on CHOK1-cCD47 stable cell line (cynomolgus); test: FACS CHOK1-cCD47

binding [1]: binds
binding [2]: binds
B1: c4D10B11 (antibody, V domains shown)
VH: QVQLQQSGPELVKPGASVKISCKASGYSFTSYYIHWVKQRPGQGLEWIGWIYPGSGNTKYNEKFKGKATLTADTSSSTADMQLSSLTSEDSAVYYCARRGDWYFDVWGTGTTVTVSS
VL: DIVMSQSPSSLVVSVGEKVTMNCKSSQSLLFSGNQKSSLAWYQQKPGQSPKLLIYWASTRESGVPDRFTGSGSGTDFTLIISTVKAEDLAVYSCQQYYSYPLTFGAGTKLELK

binding [1]: binds
binding [2]: binds
B3: c51E2F11 (antibody, V domains shown)
VH: EVQLQQSGAELVKPGASVKLSCTASGFNIKDHYIHWMNQRTEQGLEWIGRIDPDDGETRYAPKFRGKATLTADTSSNTAYLQFSSLTSEDTAVYHCTRATTITRDWYFDVWGTGTTVTVSS
VL: DIVMTQSQKFMSTSVGDRVSITCKASQNVRTSVAWYQQKPGQSPKALIYLASNRHTGIPDRFTGSGSGTDFTLTIRNVQSEDLADYFCLQHWDYPLTFGAGTKLELK

binding [1]: binds
binding [2]: binds
B5: c25E3B5 (antibody, V domains shown)
VH: QVQLQQPGTALVRPGSSVKLSCKASGYTFTSYWMHWVRQRPIKGLEWIGNIDPSDSETHYNQRFKDKVTLTVDKSSNTAYMQLSSLTSEDSAVYYCARWKYHGIGAMDYWGQGTSVTVSS
VL: DVQITQSPSYLAASPGETVTISCRTNRNISKFLAWYQEKPGKTNKLLIYSGSTLHSGIPSRFSGSGSGTDFTLTISRLEPEDFAMYYCQQHNEYPWSFGGGTKLEIK

binding [3]: binds
B7: 132D1E5 (antibody, V domains shown)
VH: QVQLQQPGAELVRPGSSVKLSCKASGYTFTNNWMHWVKQRPLQGLEWIGNIDPSDSETHYNQKFKDKATLTVDKSSTTAYIQLSSLTSEDSAVYYCARWRGGGRGAMDYWGQGTSVTVSS
VL: B5 VL with V19I, S22N, N26S, R27K, H55Q, R77N, S97T, G100R

binding [3]: binds
B14: 54G8G6 (antibody, V domains shown)
VH: QVQLQQPGADLVKPGASVKMSCKASGYTFTSYWIIWVKQRPGQGLEWIGDINPGRGSPNYNEKFKRKATLTVDTSSSTAYMQLSSLTSEDSAVYYCVRGGLRRFDHWGQGTLVTVSA
VL: ENVLTQSPAIMSASPGEKVTMTCRASSSVSSSYLHWYQQKSGASPKLWIYSTSTLASGVPARFSGSGSGTSYSLTISSVEAEDAATYYCQQYSGYPYTFGGGTKLEIK

Further lines, the binder ahead of its results:

B2: 4D10B11 (antibody, V domains shown)
VH: B1 VH
VL: B1 VL
binding [3]: binds

B4: 51E2F11 (antibody, V domains shown)
VH: B3 VH
VL: B3 VL
binding [3]: binds

B6: 25E3B5 (antibody, V domains shown)
VH: B5 VH
VL: B5 VL
binding [3]: binds

B8: 20H4G5 (antibody, V domains shown)
VH: QVQLQQPGAELVRPGSSVRLSCVTSGYTFTSHWMHWVKQGPIKGLEWIGNIDPSDSETHYNQKFKDKATLTVDKSSSTAYMQLSRLTSDDSAVYYCARWRHLGIGAMDYWGQGTSVIVSS
VL: B5 VL with V19I, S22N, T25A, N26S, R27K, E38A, T43S, K45N, H55Q, S97T
binding [3]: binds

B9: c20H4G5 (antibody, V domains shown)
VH: B8 VH
VL: B5 VL with V19I, S22N, T25A, N26S, R27K, E38A, T43S, K45N, H55Q, S97T
binding [1]: binds
binding [2]: binds

B10: c132D1E5 (antibody, V domains shown)
VH: B7 VH
VL: B5 VL with V19I, S22N, N26S, R27K, H55Q, R77N, S97T, G100R
binding [1]: binds

B11: c29A03NA (antibody, V domains shown)
VH: EVQLQQSGAELVKPGASVKMSCKASGYTFTNYWITWVKQRPGQGLEWIGDIYPVSGGTDYNEKFKTRATLTVDTSSSTAYMHLSSLTSEDSAVYYCARKGRGGVDYWGQGTTLTVSS
VL: DILMTQTPLSLPVSLGDQASISCRSSQSIVHSNANTYLEWYLQKPGQSPKLLIYKVSNRFSGVPDRFSGSGSGTDFTLKISRVEAEDLGVYFCSQSTHVPYTFGGGTKLEIK
binding [1]: binds
binding [2]: binds

B12: c95E2D10 (antibody, V domains shown)
VH: QIQLQQSGPELVKPGASMKISCKASGYPFTDYYIHWVKQKPGQGLEWIGWIYPGSGNNKYNEKFKGKATLTVDTSPSTVYMQLSSLTSEDTAVYFCARRAGNYFDYWGQGTTLTVSS
VL: NIVMTQSPKSMSRSVGERVTLSCRASENVRTYVFWYQQKPGLSPKLLIYGASNRYIGVPDRFTGSGSATDFTLTISSVQAEDLADYHCGQSYSYPLTFGAGTKLELK
binding [1]: binds
binding [2]: binds

B13: 95E2D10 (antibody, V domains shown)
VH: B12 VH
VL: B12 VL
binding [3]: binds

B15: c54G8G6 (antibody, V domains shown)
VH: B14 VH
VL: B14 VL
binding [1]: binds
